The source of these data is patent US9926306B2, “Inhibition of MCL-1 and/or BFL-1/A1” (Dana-Farber Cancer Institute, Inc., priority 2012, dated 2018).

Amino acid sequences for entries named in this document (tags omitted). A change or cut given only in a name is not applied to a line headed by its entry. Residues count along the entry.
UniProt Q16548, 1-153 limits assumed, stated change not applied: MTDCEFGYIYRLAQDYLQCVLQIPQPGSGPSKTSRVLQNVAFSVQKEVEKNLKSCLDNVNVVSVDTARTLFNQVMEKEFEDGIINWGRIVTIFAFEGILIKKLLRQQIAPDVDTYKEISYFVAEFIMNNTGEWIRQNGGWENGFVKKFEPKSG

This assay addresses BFL-1/A1ΔC (Homo sapiens (Human), UniProt Q16548). The assay is described as follows: Competitive fluorescence polarization binding assay, BFL-1/A1 (FITC-BID BH3). The note with it: read-out: BFL-1/A1 (IC50); Table A; tested form: TFA. Here is the method: FIG. 19A and FIG. 19B are graphs that show potent targeting of the anti-apoptotic protein BFL-1/A1 by MIM1. […] Thus, the complex between FITC-BID BH3 and BFL-1/A1ΔC was employed in a competitive FP assay to monitor the capacity of MIM1 to target BFL-1/A1ΔC.
Fluorescence polarization assays (FPA) were performed as previously described^38,39. Briefly, direct binding curves were first generated by incubating FITC-MCL-1 SAHBA, FITC-BID BH3, or FITC-BAD BH3 (15 nM) with serial dilutions of anti-apoptotic protein, and fluorescence polarization measured at 5 minutes on a SpectraMax M5 microplate reader (Molecular Devices). For competition assays, a serial dilution of small molecule or acetylated peptide was added to recombinant protein at ˜EC75 concentration, as determined by the direct binding assay (e.g. MCL-1 ΔNΔC, 45 nM; BCL-XLΔC, 300 nM). Fluorescence polarization was measured at equilibrium and IC50 values calculated by nonlinear regression analysis of competitive binding curves using Prism software (Graphpad).
On the technique in general: Polarisation of emitted light reports the rotation of a fluorescent probe.

Structures were worked out from names or drawings and are uncertain. The source holds more than one record for some entries. Only these are listed. An entry can have further records. Results that share an entry seem to repeat one measurement (runs, samples, wells or individuals).

As for `Cc1s/c(=N\C2CCNCC2)n(/N=C/c2ccc(O)c(O)c2O)c1C1CC1`, the IC50 is 689 nM and 265 nM.
